This is an account of results in patent US20110318757A1.

No constants are given. Whether binding was seen depends on the method and setting. Some binding calls cover weakened binding; strength is not graded here.

Experiment [1] addresses 32-mer MUC1 peptide (human). Briefly: ELISA on MUC1 peptide (32 mer cys) 50 ng/well after storage at 37 °C for 0-28 days (20 µg/ml solution mixed 1:1 with PBS, inactivated human serum or human serum); detection goat anti-human IgG (Fc) HRP, TMB; signal in % of day 0.
For experiment [2], the target named is 32-mer MUC1 peptide (human). Briefly: titration ELISA, MUC1 peptide (32mer Cys) 50 ng/well, IgG diluted 1:3.16 from 100 µg/mL, detection goat anti-human IgG (Fc) HRP, TMB; mean of three plates, BSA value subtracted; A450-A620. (In general: An ELISA detects its analyte on a solid surface through an enzyme-linked reagent.)
Experiment [3] addresses 32-mer MUC1 peptide (human). Nature of the experiment: ELISA, 32-mer MUC1 peptide immobilized in microtitre wells, IgG about 0.03 to 8000 ng/well, A450-A620 (preliminary results according to the legend).
The target of experiment [4] is 32-mer MUC1 peptide (human). Briefly: ELISA, IgG on coated 32-mer MUC1 peptide.

B1: R764-D11 (HT186-D11 IgG) (antibody, V domains shown)
VH: QMQLVQSEAELKKPGASVKVSCKASGYSFTGHYMHWVRQAPGQGLEWMGWIDPVTGGTKYAQNFQGWVTMTRDTSIRTAYLELSRLRSDDTAMYYCAREVTGDRGQFDKWGQGTLVTVAS
VL: QSVLTQPPSVSVAPGKTARITCGGNNIGSKSVHWYQQKPGQAPALVIYYGSNRPSGIPERFSGSNSGNTATLTISRVEAGDEADYYCQVWDSSSDWVFGGGTKLTVLG
As for B1, the binding entry in experiment [1], in experiment [2] and in experiment [3] was “binds” throughout.

B2: R764-B7 (HT186-B7 IgG) (antibody, V domains shown)
VH: QMQLVQSGAEVKKPGASVKVSCKASGYTFTGHYMHWVRQAPGQGLEWMGWIDPVTGGTKYAQNFQGWVTMTRDTSIRTAYMELSRLRSDDTAMYYCAREVTGDRGQFDKWGQGTLVTVAS
VL: QSVLTQPPSVSVAPGKTARITCGGNNIGSKSVHWYQQKPGQAPALVIYYGSYRPSGIPERFSGSNYGNTATLTIRRVEAGDEADYYCQVWDSSSDWVFGGGTKLTVLG
As for B2, the binding entry in experiment [2] and in experiment [3] was “binds” in each case.

B3: R764-G2 (HT186-G2 IgG) (antibody, V domains shown)
VH: RMQLVQSGAEVKKPGASVKLSCKASGYTFAGHYMHWVRQAPGRGLEWMGWIDPVTGGTKYAQNFQGWVTMTRDTSIRTAYMELSRLRSDDTAMYYCAREVTGDRGQFDKWGQGTLVTVAS
VL: QSVLTQPPSVSVAPGKTARITCGGNNIGSKSVHWYQQKPGQAPVLVIYYGSDRSSGIPERFSGSNSGNTATLTISRVEAGDEADYYCQVWDSSSDWVFGGGTKLTVLG
Regarding B3, the binding entry in experiment [4], in experiment [2] and in experiment [3] was “binds” throughout.
